Experimental data: PubChem BioAssay AID743121 (NCATS, 2013)
Purpose: 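Knock-downs that sensitise breast cancer cells to camptothecin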 (primary screen). Cell system: MDA-MB-231 cells, a human breast cancer line. Reagents: single siRNA against human genes, 20 nM siRNA (0.8 pmol per well). Timing: 120 h (drug added 48 h after transfection, read 72 h later). Treatment: camptothecin 20 nM (about EC30) for 72 h; vehicle 0.1% DMSO in parallel plates. Measurement: 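CellTiter-Glo ATP signal, scaled to control siRNA as percent viability; sensitisation given as log2 of untreated divided by camptothecin-treated viability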. Reading the numbers: log2 vehicle/camptothecin viability: higher = stronger sensitisation to camptothecin; viability with camptothecin and viability without drug: higher = more viable cells. Hit rule: 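Each gene scored by redundant siRNA activity (RSA) over its individual siRNA ratios; a gene is called active at p < 0.001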.
This is one part, drawn at random, of about 26,000 reagents. Over the whole deposit, 167 (0.63%) got an active call. 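Calls are per gene from RSA p-values that are not deposited; an individual active-marked siRNA can sensitise only weakly.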 Unmarked entries are inactive. The numbers tell different reagents against one gene apart.

target gene	reagent	log2 vehicle/camptothecin viability	viability with camptothecin (% of control)	viability without drug (% of control)
BCKDHA (GeneID 593)	1	-0.485	79.8	57
BCKDHA (GeneID 593)	2	0.443	50.3	68.4
BCKDHA (GeneID 593)	3	-0.29	72.1	58.9
BCKDHA (GeneID 593)	4	-0.322	77.1	61.6
EEF1AKMT2 (GeneID 399818)	1	0.163	72.7	81.4
EEF1AKMT2 (GeneID 399818)	2	0.00462	105	106
EEF1AKMT2 (GeneID 399818)	3	-0.0604	43.8	42
EEF1AKMT2 (GeneID 399818)	4	0.526	8.9	12.8
GLRX (GeneID 2745)	1	-0.404	84.9	64.2
GLRX (GeneID 2745)	2	-0.187	80.7	70.9
GLRX (GeneID 2745)	3	-0.217	86.5	74.5
GLRX (GeneID 2745)	4	0.0505	26.3	27.2
PICK1 (GeneID 9463)	1	-0.511	113	79.4
PICK1 (GeneID 9463)	2	-0.6	104	68.5
PICK1 (GeneID 9463)	3	-0.155	113	102
PICK1 (GeneID 9463)	4	-0.232	117	99.3

8 entries from above in another layout:
target gene,reagent,log2 vehicle/camptothecin viability,viability with camptothecin (% of control),viability without drug (% of control)
BCKDHA (GeneID 593),4,-0.322,77.1,61.6
EEF1AKMT2 (GeneID 399818),1,0.163,72.7,81.4
EEF1AKMT2 (GeneID 399818),2,0.00462,105,106
EEF1AKMT2 (GeneID 399818),3,-0.0604,43.8,42
EEF1AKMT2 (GeneID 399818),4,0.526,8.9,12.8
GLRX (GeneID 2745),1,-0.404,84.9,64.2
GLRX (GeneID 2745),2,-0.187,80.7,70.9
GLRX (GeneID 2745),3,-0.217,86.5,74.5

Next entries follow:
target gene	reagent	log2 vehicle/camptothecin viability	viability with camptothecin (% of control)	viability without drug (% of control)
TRIM33 (GeneID 51592)	1	-0.329	89.3	71.1
TRIM33 (GeneID 51592)	2	-0.0752	108	103
TRIM33 (GeneID 51592)	3	0.27	60.7	73.1
TRIM33 (GeneID 51592)	4	0.00648	74.8	75.1
TRIM33 (GeneID 51592)	5	0.498	38	53.6
SLC6A12 (GeneID 6539)	1	-0.0526	116	112
SLC6A12 (GeneID 6539)	2	-0.191	79.3	69.4
SLC6A12 (GeneID 6539)	3	-0.164	89.9	80.3
SLC6A12 (GeneID 6539)	4	0.252	78.2	93.1
CNTNAP2 (GeneID 26047)	1	-0.236	78	66.2
CNTNAP2 (GeneID 26047)	2	-0.118	68.3	62.9
CNTNAP2 (GeneID 26047)	3	0.315	59.8	74.4
CNTNAP2 (GeneID 26047)	4	-0.334	72.3	57.4
CSF3R (GeneID 1441)	1	0.194	76.6	87.6
CSF3R (GeneID 1441)	2	-0.0367	59.3	57.8
CSF3R (GeneID 1441)	3	1.56	18.2	53.6
CSF3R (GeneID 1441)	4	-0.151	109	98.3
CLDN16 (GeneID 10686)	1	-0.793	43.5	25.1
CLDN16 (GeneID 10686)	2	0.836	41.4	73.8
CLDN16 (GeneID 10686)	3	-0.238	70.9	60.1
CLDN16 (GeneID 10686)	4	-0.264	61.3	51.1
GJB2 (GeneID 2706)	1	-0.381	83.9	64.4
GJB2 (GeneID 2706)	2	0.129	91.1	99.6
GJB2 (GeneID 2706)	3	-0.0266	54.2	53.2
GJB2 (GeneID 2706)	4	0.0305	58.9	60.1
CLEC4C (GeneID 170482)	1	-0.0334	81.1	79.2
CLEC4C (GeneID 170482)	2	-0.261	42.9	35.8
CLEC4C (GeneID 170482)	3	-0.449	96.7	70.9
CLEC4C (GeneID 170482)	4	0.0305	86.1	87.9
TNS3 (GeneID 64759)	1	-0.217	67.4	58
TNS3 (GeneID 64759)	2	-0.133	108	98.7
TNS3 (GeneID 64759)	3	-0.0263	17.1	16.8
